# From the supplement of paper PMC3334620
# Whole data set: some 33,000 sequences, median “E-score (-0.5 to 0.5)” near -8e-05, cut for the highest 2% near 0.23. Some of the results follow.
# Biological target: T1, Nrg2 (UniProt P38082)
# T1 sequence: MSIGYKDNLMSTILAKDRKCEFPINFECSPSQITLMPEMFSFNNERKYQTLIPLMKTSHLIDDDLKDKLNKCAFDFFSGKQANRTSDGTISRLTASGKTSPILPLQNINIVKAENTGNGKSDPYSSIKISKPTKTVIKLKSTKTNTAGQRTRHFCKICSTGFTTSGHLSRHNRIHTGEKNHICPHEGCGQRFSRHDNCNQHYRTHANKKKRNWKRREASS
# Experiment: PBM E-score (8-mer binding enrichment) (E-score (-0.5 to 0.5)); higher = stronger / more preferred TF binding
# Conditions: protein concentration: 100 nM; construct: GST-full length
# Method in brief: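 Bound GST-tagged yeast transcription factors, applied at about 100-200 nM to double-stranded universal all-10-mer Agilent arrays, were detected with fluorescent anti-GST. Scans were normalised with masliner. A modified Wilcoxon-Mann-Whitney statistic, the E-score, was assigned to each ungapped eight-base word pooled with its reverse complement by the Universal PBM Analysis Suite.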
row,Sequence,PBM E-score
1,AGCGCTCG,-0.0806
2,ACTCTGGG,0.0604
3,CAAGCTGA,0.144
4,GATGTTGA,-0.016
5,CCCTGTGC,0.263
6,CTTCCTTA,-0.129
7,AAGGGGCA,0.0413
8,ACCCTACT,0.0864
9,GGGGTTTA,-0.0777
10,CAGTTGCC,-0.092
11,GCACAACC,-0.0363
12,CTGATCTC,-0.0447
13,CAAATCTC,0.0453
14,AAATGGGT,0.125
15,ATTATGGA,-0.00592
16,AGTTTCGG,0.2
17,GAAACGCC,-0.0514
18,TGCAGCAA,0.201
19,GAGGCATC,-0.234
20,CCGGGGGA,-0.316
21,AGACAGGA,0.118
22,ATGCAATG,-0.0204
23,ATCGCTGC,0.0561
24,GAGCCTGC,-0.0298
25,AAACGGAC,-0.205

row,Sequence,PBM E-score
1,CTTAAGAA,0.0514
2,CCAGCCTC,-0.23
3,ATGAGCCC,-0.0471
4,GCGTTGGA,-0.12
5,CTCATTCA,0.161
6,CATTATAC,0.204
7,AAGGCGCC,0.1
8,TCATGTCA,0.0401
9,CCAAGTCC,-0.056
10,TAAAGCCA,0.0522
11,CTGGGATC,-0.171
12,GCCCGGAA,0.041
13,ACGTCCTG,-0.264
14,CAGAATAG,0.0458
15,ACAAGGCT,-0.256
16,CTAACATC,-0.0367
17,TACTCCGA,-0.0135
18,TACGTCGA,-0.00706
19,CCACCGCG,0.0694
20,AATCGTCC,0.0101
21,CCTGTCCA,-0.123
22,CCAGTGAG,-0.206
23,TAATCGTA,-0.0259
24,CCCAAAAA,-0.0156
25,AGAGGATC,-0.00322

# Look-ups from the results shown:
# ATGAGCCC | PBM E-score: -0.0471
# CCAAGTCC | PBM E-score: -0.056
# TAAAGCCA | PBM E-score: 0.0522

# In a second layout: entries from further up
row | Sequence | PBM E-score
3 | ATGAGCCC | -0.0471
8 | TCATGTCA | 0.0401
13 | ACGTCCTG | -0.264
14 | CAGAATAG | 0.0458
23 | TAATCGTA | -0.0259

# Going on with the list.

row,Sequence,PBM E-score
1,TCCTGAGA,-0.0364
2,AAGTAATA,-0.00088
3,GTCCACAA,-0.177
4,GCACACAC,-0.0423
5,CCGCCTAC,0.0611
6,ACCTAATG,-0.262
7,AGTTCAAT,-0.0578
8,CCAAGAAC,0.0699
9,ACTACAAA,0.141
10,TTAGCTAA,-0.0113
11,ACCACAAG,-0.0833
12,CGGTCCGC,-0.0774
13,ACGATCCG,0.0452
14,ATTGCGTG,-0.0627
15,GGTCGAGA,0.0272
16,ATGTCGAG,-0.0763
17,CACCTACA,-0.027
18,GCAAGCTA,-0.00443
19,ATTAGATC,0.0519
20,AACTGACT,-0.167
21,GCGTACAC,-0.0949
22,ATCGGATG,0.0179
23,AACGTAAG,0.0335
24,CTTGCAGC,-0.0798
25,GATTCTGA,-0.00417

row,Sequence,PBM E-score
1,ATCTTTAC,0.0513
2,CAATACTG,0.03
3,CCCCCAGA,-0.484
4,AGAGAAGA,-0.173
5,ACGACGAA,0.107
6,ACTCTACT,0.0768
7,AAAGTCTT,-0.148
8,TTGAAAAA,0.0802
9,CGTAATTC,0.0958
10,AACTTATG,-0.0218
11,ATTGCGTC,0.237
12,CACCCAAC,-0.0412
13,CTTAACCC,-0.101
14,ACTTGCAG,-0.0514
15,CGCCAGTC,-0.131
16,ATAAGCTA,-0.0795
17,AGCCGGCC,0.0394
18,ACCTACTC,0.0619
19,AAGCTTGA,-0.0785
20,CACGGTCA,-0.081
21,AAGTCAGA,-0.0338
22,GAAATATC,0.052
23,AGTATGTC,0.103
24,GCCCAAAC,0.0141
25,CCCTTTCC,-0.117

row,Sequence,PBM E-score
1,ACCAACAA,0.245
2,AAAGAGAA,0.0136
3,CCTCAAGA,-0.0963
4,AGGTAACT,0.0986
5,AGCGAAAA,0.0209
6,ATGGCCAG,0.172
7,TCAACGAA,0.0485
8,CAATCTTA,-0.0766
9,AACGCGGT,0.0753
10,ACTTTCCC,-0.123
11,CTTGTTTA,-0.0191
12,GTATGCCA,-0.0357
13,ACCTTGCA,-0.0793
14,CCGTGATC,0.0111
15,ACCAGCGG,-0.0916
16,TCTTATAA,0.0658
17,TCGGATAA,-0.0774
18,AAAAGGGT,0.148
19,AGTCCCCA,-0.0879
20,ATCGCCGA,-0.152
21,CGGTCAGA,-0.145
22,ATTAAAGC,0.0945
23,TCACTCCA,0.0355
24,CAGCGCTC,-0.0841
25,CGCGTAAC,-0.159

row,Sequence,PBM E-score
1,CTTCGCGA,0.0778
2,CGTTATAA,-0.058
3,AAATGGAC,0.19
4,AGCAGTTC,-0.109
5,TCAGGTAA,-0.0616
6,AGGCCATC,-0.0922
7,ATCAGCCA,-0.0618
8,TACGGGGA,0.016
9,AGACTGTG,-0.103
10,CTAATGTC,0.0636
11,AGTTGTTC,0.00173
12,CAAAAAGG,-0.0881
13,ATATCCGC,-0.0377
14,GTACGGAA,0.0949
15,ATATCGGA,0.116
16,CAGCCTGG,-0.0765
17,CTCCTACC,-0.264
18,TACCCGTA,-0.0153
19,AAATCATT,-0.154
20,CTACGGTC,-0.302
21,CACAGTAC,0.0168
22,CTCCATTC,-0.0548
23,AGAATCCC,0.172
24,CTCGGGGC,-0.0297
25,CCCTTTTC,0.186

row,Sequence,PBM E-score
1,ATTGCTCC,-0.105
2,CAGTCCGG,-0.298
3,CACAACAC,0.107
4,TACACCTA,0.0327
5,CATAGGCG,-0.076
6,CCTTCCAA,-0.0655
7,GTATAGCA,0.078
8,GGGCAAAA,0.105
9,ACGGGCAT,-0.123
10,GCTAGAGC,-0.177
11,GCAGGGAC,0.28
12,GAACGCTA,-0.186
13,CCGGTGCC,-0.197
14,ATGCCATC,0.0991
15,AACCCGGA,-0.123
16,AGGCTGTG,-0.112
17,ACCTAGCC,-0.171
18,GTTCAGTA,0.0427
19,ACGCGGTA,-0.152
20,GCATATAC,-0.0328
21,CTCGGATC,0.0434
22,CAACTCTG,-0.136
